# PubChem BioAssay AID485314 (National Center for Advancing Translational Sciences (NCATS), 2010)
# About 4,500 (1.3%) of roughly 340,000 compounds were called active. The inconclusive results got no clear call from the source; some entries with a clear call stand among them for comparison. Calls come from the whole dose curve; as a rule, active = well fitted inhibition curve with a large enough effect; inconclusive = small, poorly fitted or top-dose-only effect, or another doubt; inactive = no such curve, though single readings can be large or run the other way. Potencies beside an inconclusive call are fits to weak or partial responses and may not hold up.
# Target: DNA polymerase beta (Homo sapiens) (UniProt P06746)
# Assay: qHTS Assay for Inhibitors of DNA Polymerase Beta
# Conditions: Pol beta primer extension/strand displacement, fluorescence kinetic; activity change, negative = inhibition: at 114 µM (top of the series)
# Outline: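 Reaction started by 50 nM substrate onto compound-treated Pol beta (10 nM, 15 min preincubation, room temperature); plates read at 0 min and 10 min. Normalized concentration-effect data fitted by four-parameter Hill equation.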
# % is set by controls: 0 for no effect and ±100 for the full control effect; potency is the fitted concentration of half-maximal effect.
SMILES,Potency,"activity change, negative = inhibition"
Cc1oc(-c2ccccc2)nc1CN1C(=O)C(C)N=C(c2ccccc2F)c2cc(Cl)ccc21 (stereo not drawn),"inconclusive: 89.1 µM [inhibitor, single point]",
Cc1ccc(N2C(=O)NC(=O)/C(=C\c3cc(C)n(-c4ccc(C(=O)O)cc4)c3C)C2=O)cc1,,inconclusive: -32% [inhibitor]
O=c1c2ccccc2nc(-c2cccs2)n1-c1ccccc1,"inconclusive: 17.8 µM [inhibitor, full curve, poor fit]",
NC(=O)CI,"inconclusive: 39.8 µM [inhibitor, single point]",
O=C1NC(=O)N(c2ccc3c(c2)OCO3)C(=O)/C1=C\c1ccc(-c2ccccc2C(=O)O)o1,active: 10 µM,
O=c1[nH]sc2cc(F)ccc12,"inconclusive: 89.1 µM [inhibitor, single point]",
COc1ccc(C2=NCC(=O)N(CC(=O)NCc3ccco3)c3sc4c(c32)CCCC4)cc1OC,"inconclusive: 89.1 µM [inhibitor, single point]",
CCC(=NCc1cccnc1)c1c(O)n(Cc2ccccc2)c(=O)[nH]c1=O,"inconclusive: 2 µM [inhibitor, full curve]",
COc1ccc(N2C(=O)/C(=C/C=C/c3ccccc3[N+](=O)[O-])C(=O)NC2=S)cc1,active: 20 µM,
N=Cc1c(O)n(-c2ccc(C34CC5CC(CC(C5)C3)C4)cc2)c(=O)[nH]c1=O,"inconclusive: 79.4 µM [inhibitor, single point]",
CC(C)C[C@H]1C(=O)N2CCCC2[C@]2(O)O[C@](NC(=O)[C@@H]3C=C4c5cccc6[nH]cc(c56)CC4N(C)C3)(C(C)C)C(=O)N12 (stereo partly drawn),inactive,
COc1cc(/C=C/c2nc3ccccc3c(=O)n2-c2ccc(O)cc2)ccc1O,,inconclusive: -99% [inhibitor]
Cc1oc(-c2cccc(Cl)c2)nc1CN1CCC(C(=O)NCCCN2CCN(c3cccc(Cl)c3)CC2)CC1,"inconclusive: 8.91 µM [inhibitor, full curve, poor fit]",
CCOP(=O)(/C=C(\Cl)c1ccccc1)C(O)c1ccc(F)cc1 (stereo not drawn),inactive,
CN1C(=O)NC(=O)/C(=C\c2ccc([N+](=O)[O-])o2)C1=O,active: 100 µM,
O=C(COC(=O)c1ccc(O)cc1)Nc1ccc(Cl)cc1C(=O)c1ccccc1,"inconclusive: 0.562 µM [inhibitor, full curve, poor fit]",
Cn1cccc1/C=C1\C(=O)NC(=O)N(Cc2ccccc2)C1=O,,inconclusive: -37.2% [inhibitor]
Nc1c(C(=O)NCc2ccco2)c2nc3ccccc3nc2n1CCN1CCCCC1,"inconclusive: 39.8 µM [inhibitor, full curve]",
CCOP(=S)(OCC)Oc1cc(C)oc(=O)c1,"inconclusive: 79.4 µM [inhibitor, single point]",
O=c1cc(-c2ccc(O)c(O)c2)oc2c(C3O[C@H](CO)[C@@H](O)[C@H](O)[C@H]3O)c(O)cc(O)c12 (stereo partly drawn),active: 20 µM,
COc1cc2c(cc1OC)-c1c3c(cc4c1[C@@H](C2)N(C)CC4)OCO3,"inconclusive: 56.2 µM [inhibitor, partial curve]",
CCOc1ccc(-n2c(O)c(N=Nc3c(C)n(C)n(-c4ccccc4)c3=O)c(=O)[nH]c2=O)cc1,inactive,

SMILES,Potency,"activity change, negative = inhibition"
CC1=NCCc2c1[nH]c1ccccc21,"inconclusive: 79.4 µM [inhibitor, single point]",
c1ccc(Cn2ccnc2)cc1,"inconclusive: 17.8 µM [inhibitor, single point]",
Cc1ccc(/C=C2\C(=O)NC(=O)N(Cc3ccccc3Cl)C2=O)o1,"inconclusive: 79.4 µM [inhibitor, partial curve]",
COc1ccc(S(=O)(=O)Nc2cc([N+](=O)[O-])ccc2OC)cc1,"inconclusive: 79.4 µM [inhibitor, single point]",
COc1cc2c(cc1O)C[C@H]1NCCc3cc4c(c-2c31)OCO4,active: 39.8 µM,
CCOc1cc(/C=C2\C(=O)NC(=O)N(CCc3ccc(F)cc3)C2=O)ccc1O,inactive,
Cn1c(O)c(C=NC2CCCCCC2)c(=O)[nH]c1=S,"inconclusive: 44.7 µM [inhibitor, partial curve]",
Cc1ccccc1N1C(=O)NC(=O)/C(=C/c2ccc(N3CCOCC3)o2)C1=O,"inconclusive: 89.1 µM [inhibitor, single point]",
Cc1ccc(/C=C2/C(=O)NC(=O)N(Cc3ccc(F)cc3)C2=O)o1,inactive,
O=c1[nH]c(=O)n(Cc2ccccc2Cl)c(O)c1/C=C1/C=CC=N1,"inconclusive: 25.1 µM [inhibitor, full curve, poor fit]",
Cc1cc(/C=C2/C(=O)NC(=O)N(Cc3ccco3)C2=O)c(C)n1-c1ccc(C(=O)O)cc1,active: 17.8 µM,
Cc1cc(OCC(=O)OC(C)C)c2c3c(c(=O)oc2c1)CCCC3,"inconclusive: 39.8 µM [inhibitor, partial curve]",
Cc1cc(/C=C2\C(=O)NC(=O)N(Cc3ccccc3Cl)C2=O)c(C)n1-c1ccc(C(=O)O)cc1,active: 15.8 µM,
O=P1(Oc2ccccc2)CC=C[C@H](COCc2ccccc2)O1 (stereo partly drawn),"inconclusive: 79.4 µM [inhibitor, single point]",
O=c1c2ccccc2nc(-c2ccco2)n1-c1nccs1,inactive,
CC(C)CN(CC(C)C)c1ccc(C=C2C(=O)NC(=S)NC2=O)cc1[N+](=O)[O-],active: 50.1 µM,
CCOc1ccc(NC(=O)c2ccc(NC(=O)COC(=O)Cc3ccccc3)cc2)cc1,active: 22.4 µM,
CN1C(=O)C(=Cc2ccc(-c3cccc(Cl)c3)o2)C(=O)N(C)C1=O,"inconclusive: 25.1 µM [inhibitor, single point]",
CCCN(CCC)C(=O)Cc1c(-c2ccc(Cl)cc2)nc2c(Cl)cc(Cl)cn12,"inconclusive: 28.2 µM [inhibitor, single point]",
O=C1NC(=S)NC(=O)C1C/C=C/c1ccccc1,"inconclusive: 3.16 µM [inhibitor, full curve]",
COc1ccc(OCCOc2cccc(C=C3C(=O)NC(=O)NC3=O)c2)cc1,"inconclusive: 70.8 µM [inhibitor, partial curve]",

# Reformatted: entries from further up
SMILES | Potency | activity change, negative = inhibition
Cn1c(O)c(C=NC2CCCCCC2)c(=O)[nH]c1=S | inconclusive: 44.7 µM [inhibitor, partial curve] | 
Cc1ccccc1N1C(=O)NC(=O)/C(=C/c2ccc(N3CCOCC3)o2)C1=O | inconclusive: 89.1 µM [inhibitor, single point] | 
